Measurements reported in PubChem BioAssay AID1259308 (NCATS, 2017).
The deposit covers about 59,000 reagents; shown is a random part of them. Of all reagents, about 1,510 (2.6%) got an active call. 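Calls use total luciferase alone and ignore viability, so some active siRNAs may act by altering cell number.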 Reagents against one gene are numbered here. Not all columns of the deposit are shown. Reagent sequences are not shown.

Aim: 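Candidate targets for better recombinant protein yield in mammalian cells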 (primary screen)
Cells: human HEK293 embryonic kidney cells stably expressing firefly luciferase (HEK-CMV-Luc2-Hygro)
Reagent: single siRNA against human genes, 0.8 pmol siRNA per well
Duration: 72 h
Read-out: 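Reporter luminescence and viable-cell signal on separate replicate plates, given as percent of non-targeting control and median/MAD z-scores, plus per-cell luciferase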
Direction: total luciferase, z-score and total luciferase, % of control: higher = more reporter protein produced
Active means: 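An siRNA counts as active if its total luciferase robust z-score exceeds 3; genes with two or more such siRNAs out of three were retested with fresh siRNAs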
Meaning of the calls: active = raised luciferase; inactive = no rise

| gene symbol | siRNA no. | total luciferase, z-score | total luciferase, % of control | outcome |
| --- | --- | --- | --- | --- |
| BCL2L15 (GeneID 440603) | 1 | -1.68 | 48.4 | inactive |
| BCL2L15 (GeneID 440603) | 2 | 0.0795 | 83.5 | inactive |
| BCL2L15 (GeneID 440603) | 3 | -1.13 | 59.5 | inactive |
| PPP1R9B (GeneID 84687) | 1 | -0.631 | 69.3 | inactive |
| PPP1R9B (GeneID 84687) | 2 | -0.682 | 68.3 | inactive |
| PPP1R9B (GeneID 84687) | 3 | -0.0517 | 80.9 | inactive |
| SCAI (GeneID 286205) | 1 | -0.0317 | 81.3 | inactive |
| SCAI (GeneID 286205) | 2 | 0.45 | 90.8 | inactive |
| SCAI (GeneID 286205) | 3 | -0.274 | 76.4 | inactive |
| CALML5 (GeneID 51806) | 1 | -1.53 | 51.5 | inactive |
| CALML5 (GeneID 51806) | 2 | 0.326 | 88.4 | inactive |
| CALML5 (GeneID 51806) | 3 | 0.465 | 91.1 | inactive |
| TUBBP5 (GeneID 643224) | 1 | 0.649 | 94.8 | inactive |
| TUBBP5 (GeneID 643224) | 2 | -0.0233 | 81.4 | inactive |
| TUBBP5 (GeneID 643224) | 3 | 0.182 | 85.5 | inactive |
| NUP205 (GeneID 23165) | 1 | -0.789 | 66.2 | inactive |
| NUP205 (GeneID 23165) | 2 | -0.54 | 71.1 | inactive |
| NUP205 (GeneID 23165) | 3 | -0.552 | 70.9 | inactive |
| DAAM1 (GeneID 23002) | 1 | 0.0983 | 83.8 | inactive |
| DAAM1 (GeneID 23002) | 2 | -0.963 | 62.7 | inactive |
| DAAM1 (GeneID 23002) | 3 | -1.44 | 53.2 | inactive |
| PIRT (GeneID 644139) | 1 | 1.13 | 104 | inactive |
| PIRT (GeneID 644139) | 2 | -0.829 | 65.4 | inactive |
| PIRT (GeneID 644139) | 3 | 0.579 | 93.4 | inactive |
| IK (GeneID 3550) | 1 | 1.74 | 116 | inactive |
| IK (GeneID 3550) | 2 | 0.401 | 89.9 | inactive |
| IK (GeneID 3550) | 3 | 0.552 | 92.9 | inactive |
| FAM47DP (GeneID 139249) | 1 | -0.65 | 69 | inactive |
| FAM47DP (GeneID 139249) | 2 | -2.07 | 40.8 | inactive |
| FAM47DP (GeneID 139249) | 3 | -0.602 | 69.9 | inactive |
| RPRM (GeneID 56475) | 1 | -1.84 | 45.2 | inactive |
| RPRM (GeneID 56475) | 2 | 1.67 | 115 | inactive |
| RPRM (GeneID 56475) | 3 | -1.25 | 57.1 | inactive |
| ZNF511 (GeneID 118472) | 1 | -0.856 | 64.9 | inactive |
| ZNF511 (GeneID 118472) | 2 | -0.908 | 63.8 | inactive |
| ZNF511 (GeneID 118472) | 3 | -2.54 | 31.5 | inactive |
| DNAAF6 (GeneID 139212) | 1 | -0.319 | 75.5 | inactive |
| DNAAF6 (GeneID 139212) | 2 | -1.89 | 44.3 | inactive |
| DNAAF6 (GeneID 139212) | 3 | -0.819 | 65.6 | inactive |
| FAM194C (GeneID 84077) | 1 | -0.201 | 77.9 | inactive |
| FAM194C (GeneID 84077) | 2 | 1.87 | 119 | inactive |
| FAM194C (GeneID 84077) | 3 | -0.336 | 75.2 | inactive |
| OR2AE1 (GeneID 81392) | 1 | 1.4 | 110 | inactive |
| OR2AE1 (GeneID 81392) | 2 | 0.088 | 83.6 | inactive |
| OR2AE1 (GeneID 81392) | 3 | 0.638 | 94.6 | inactive |
| TMEM115 (GeneID 11070) | 1 | 3.14 | 144 | active |
| TMEM115 (GeneID 11070) | 2 | -0.159 | 78.7 | inactive |
| TMEM115 (GeneID 11070) | 3 | 0.118 | 84.2 | inactive |
| PSMA1 (GeneID 5682) | 1 | 0.336 | 88.6 | inactive |
| PSMA1 (GeneID 5682) | 2 | 1.53 | 112 | inactive |
| PSMA1 (GeneID 5682) | 3 | -0.0157 | 81.6 | inactive |
| GAREM1 (GeneID 64762) | 1 | -0.199 | 77.9 | inactive |
| GAREM1 (GeneID 64762) | 2 | 0.418 | 90.2 | inactive |
| GAREM1 (GeneID 64762) | 3 | 0.0969 | 83.8 | inactive |
| GM2A (GeneID 2760) | 1 | -0.462 | 72.7 | inactive |
| GM2A (GeneID 2760) | 2 | -0.98 | 62.4 | inactive |
| GM2A (GeneID 2760) | 3 | -2.02 | 41.6 | inactive |

A few values from above.
TMEM115 (GeneID 11070) #3, outcome: inactive
Under “total luciferase, % of control”, TMEM115 (GeneID 11070) #1 has 144
Under “total luciferase, z-score”, PIRT (GeneID 644139) #3 is entered as 0.579
Value for PIRT (GeneID 644139) #1 under “total luciferase, % of control”: 104
Value of TUBBP5 (GeneID 643224) #3 in “total luciferase, z-score”: 0.182
Result of GM2A (GeneID 2760) #2 in “total luciferase, % of control”: 62.4
